Assay results: the supplement of paper PMC12067093, “Discovery and optimisation of a covalent ligand for TRIM25 and its application to targeted protein ubiquitination” (Chemical Science, 2025)
Some of the results follow.

Protein sequences, listed by entry. Tags and fused reporters are not part of them. Lines headed by an entry give the natural chain unless they say otherwise; changes in a name come on top.
UniProt Q92551: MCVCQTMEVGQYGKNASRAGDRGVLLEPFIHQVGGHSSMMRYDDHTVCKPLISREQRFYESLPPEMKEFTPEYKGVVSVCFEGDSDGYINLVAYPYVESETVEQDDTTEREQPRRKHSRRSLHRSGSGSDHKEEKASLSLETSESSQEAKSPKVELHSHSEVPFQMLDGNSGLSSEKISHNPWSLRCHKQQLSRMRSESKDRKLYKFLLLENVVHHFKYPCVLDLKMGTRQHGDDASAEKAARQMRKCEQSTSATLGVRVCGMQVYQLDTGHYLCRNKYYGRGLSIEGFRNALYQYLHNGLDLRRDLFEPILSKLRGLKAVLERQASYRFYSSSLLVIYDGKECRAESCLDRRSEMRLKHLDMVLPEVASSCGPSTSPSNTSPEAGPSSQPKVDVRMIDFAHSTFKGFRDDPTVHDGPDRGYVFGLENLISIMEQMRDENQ
UniProt P06756, whole entry, looked up: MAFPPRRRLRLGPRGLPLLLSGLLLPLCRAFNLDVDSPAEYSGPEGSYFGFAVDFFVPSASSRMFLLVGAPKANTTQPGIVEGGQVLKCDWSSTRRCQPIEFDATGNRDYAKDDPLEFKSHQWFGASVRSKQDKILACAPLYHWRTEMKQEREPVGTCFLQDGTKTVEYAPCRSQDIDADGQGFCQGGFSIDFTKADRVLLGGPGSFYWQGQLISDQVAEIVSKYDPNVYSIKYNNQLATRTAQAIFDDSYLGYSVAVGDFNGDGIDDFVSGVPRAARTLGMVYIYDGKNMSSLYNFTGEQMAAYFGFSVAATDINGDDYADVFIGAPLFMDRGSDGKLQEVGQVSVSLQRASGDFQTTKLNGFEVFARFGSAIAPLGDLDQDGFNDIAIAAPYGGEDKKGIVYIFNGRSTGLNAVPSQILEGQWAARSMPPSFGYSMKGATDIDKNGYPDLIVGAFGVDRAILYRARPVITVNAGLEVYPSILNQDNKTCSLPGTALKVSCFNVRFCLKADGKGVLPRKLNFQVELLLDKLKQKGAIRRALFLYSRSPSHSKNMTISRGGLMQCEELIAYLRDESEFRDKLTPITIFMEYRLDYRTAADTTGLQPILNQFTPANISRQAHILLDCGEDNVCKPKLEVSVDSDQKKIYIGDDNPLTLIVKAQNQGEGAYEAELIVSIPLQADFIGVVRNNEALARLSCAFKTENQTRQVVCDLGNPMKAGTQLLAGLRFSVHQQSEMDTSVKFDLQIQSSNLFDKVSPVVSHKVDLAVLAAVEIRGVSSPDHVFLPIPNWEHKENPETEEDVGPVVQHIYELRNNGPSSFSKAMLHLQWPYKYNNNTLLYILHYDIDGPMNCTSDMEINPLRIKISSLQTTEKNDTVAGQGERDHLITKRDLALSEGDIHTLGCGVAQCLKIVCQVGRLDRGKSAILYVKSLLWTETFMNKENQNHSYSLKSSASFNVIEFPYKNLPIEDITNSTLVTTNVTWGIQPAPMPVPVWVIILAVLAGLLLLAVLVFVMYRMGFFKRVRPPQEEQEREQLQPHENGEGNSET
UniProt Q9UI26: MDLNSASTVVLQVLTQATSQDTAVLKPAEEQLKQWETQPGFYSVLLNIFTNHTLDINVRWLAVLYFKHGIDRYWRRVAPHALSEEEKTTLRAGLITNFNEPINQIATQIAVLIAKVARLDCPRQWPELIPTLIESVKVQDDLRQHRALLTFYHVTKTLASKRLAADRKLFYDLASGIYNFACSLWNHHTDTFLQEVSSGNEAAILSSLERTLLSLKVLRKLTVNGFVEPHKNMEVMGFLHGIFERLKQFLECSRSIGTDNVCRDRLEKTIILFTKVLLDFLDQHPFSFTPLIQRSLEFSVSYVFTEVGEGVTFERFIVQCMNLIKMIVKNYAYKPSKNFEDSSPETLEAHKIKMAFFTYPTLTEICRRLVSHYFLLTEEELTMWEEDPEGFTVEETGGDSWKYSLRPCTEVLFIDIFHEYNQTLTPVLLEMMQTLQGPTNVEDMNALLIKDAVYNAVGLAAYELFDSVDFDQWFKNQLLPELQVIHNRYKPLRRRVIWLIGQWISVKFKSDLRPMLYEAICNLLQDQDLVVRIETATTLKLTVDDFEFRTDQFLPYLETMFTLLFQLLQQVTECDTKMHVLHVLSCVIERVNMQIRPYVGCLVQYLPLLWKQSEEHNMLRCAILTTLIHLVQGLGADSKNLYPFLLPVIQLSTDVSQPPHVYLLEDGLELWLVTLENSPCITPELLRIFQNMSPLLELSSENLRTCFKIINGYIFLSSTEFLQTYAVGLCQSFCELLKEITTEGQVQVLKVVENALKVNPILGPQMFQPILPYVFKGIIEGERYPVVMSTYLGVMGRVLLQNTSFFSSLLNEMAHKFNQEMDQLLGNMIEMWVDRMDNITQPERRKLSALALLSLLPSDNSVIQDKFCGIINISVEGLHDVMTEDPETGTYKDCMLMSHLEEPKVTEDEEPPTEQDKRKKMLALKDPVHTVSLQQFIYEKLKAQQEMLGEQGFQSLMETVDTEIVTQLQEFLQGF
UniProt Q6DN90: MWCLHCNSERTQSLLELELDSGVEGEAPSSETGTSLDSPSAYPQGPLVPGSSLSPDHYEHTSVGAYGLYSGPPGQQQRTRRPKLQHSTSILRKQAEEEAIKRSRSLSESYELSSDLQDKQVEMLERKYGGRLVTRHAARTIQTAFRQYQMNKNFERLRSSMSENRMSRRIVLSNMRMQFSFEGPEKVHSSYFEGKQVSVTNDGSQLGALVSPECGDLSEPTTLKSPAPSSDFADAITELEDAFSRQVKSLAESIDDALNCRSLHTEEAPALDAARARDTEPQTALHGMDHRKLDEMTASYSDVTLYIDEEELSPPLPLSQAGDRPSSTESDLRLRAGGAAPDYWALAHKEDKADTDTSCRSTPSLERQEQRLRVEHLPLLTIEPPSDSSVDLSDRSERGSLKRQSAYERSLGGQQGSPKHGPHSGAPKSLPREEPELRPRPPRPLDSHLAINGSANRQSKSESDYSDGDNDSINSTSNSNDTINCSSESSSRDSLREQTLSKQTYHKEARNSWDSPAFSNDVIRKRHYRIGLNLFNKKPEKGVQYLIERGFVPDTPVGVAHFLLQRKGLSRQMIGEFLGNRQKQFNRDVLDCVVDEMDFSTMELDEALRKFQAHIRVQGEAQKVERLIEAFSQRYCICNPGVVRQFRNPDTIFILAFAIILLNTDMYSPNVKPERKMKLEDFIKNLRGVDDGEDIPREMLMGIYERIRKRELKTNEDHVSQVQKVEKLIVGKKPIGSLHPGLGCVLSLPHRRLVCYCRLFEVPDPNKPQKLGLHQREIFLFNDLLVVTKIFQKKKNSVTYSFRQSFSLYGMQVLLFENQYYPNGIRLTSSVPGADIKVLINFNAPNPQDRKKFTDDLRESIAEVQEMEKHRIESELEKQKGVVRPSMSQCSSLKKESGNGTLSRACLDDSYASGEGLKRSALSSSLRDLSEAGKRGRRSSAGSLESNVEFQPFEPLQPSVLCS
UniProt P05161, whole entry, looked up: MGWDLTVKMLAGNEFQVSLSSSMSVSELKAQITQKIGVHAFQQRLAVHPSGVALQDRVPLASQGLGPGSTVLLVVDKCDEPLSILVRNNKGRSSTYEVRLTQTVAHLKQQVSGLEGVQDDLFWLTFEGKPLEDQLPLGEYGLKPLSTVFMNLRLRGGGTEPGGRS
UniProt P05107, whole entry, looked up: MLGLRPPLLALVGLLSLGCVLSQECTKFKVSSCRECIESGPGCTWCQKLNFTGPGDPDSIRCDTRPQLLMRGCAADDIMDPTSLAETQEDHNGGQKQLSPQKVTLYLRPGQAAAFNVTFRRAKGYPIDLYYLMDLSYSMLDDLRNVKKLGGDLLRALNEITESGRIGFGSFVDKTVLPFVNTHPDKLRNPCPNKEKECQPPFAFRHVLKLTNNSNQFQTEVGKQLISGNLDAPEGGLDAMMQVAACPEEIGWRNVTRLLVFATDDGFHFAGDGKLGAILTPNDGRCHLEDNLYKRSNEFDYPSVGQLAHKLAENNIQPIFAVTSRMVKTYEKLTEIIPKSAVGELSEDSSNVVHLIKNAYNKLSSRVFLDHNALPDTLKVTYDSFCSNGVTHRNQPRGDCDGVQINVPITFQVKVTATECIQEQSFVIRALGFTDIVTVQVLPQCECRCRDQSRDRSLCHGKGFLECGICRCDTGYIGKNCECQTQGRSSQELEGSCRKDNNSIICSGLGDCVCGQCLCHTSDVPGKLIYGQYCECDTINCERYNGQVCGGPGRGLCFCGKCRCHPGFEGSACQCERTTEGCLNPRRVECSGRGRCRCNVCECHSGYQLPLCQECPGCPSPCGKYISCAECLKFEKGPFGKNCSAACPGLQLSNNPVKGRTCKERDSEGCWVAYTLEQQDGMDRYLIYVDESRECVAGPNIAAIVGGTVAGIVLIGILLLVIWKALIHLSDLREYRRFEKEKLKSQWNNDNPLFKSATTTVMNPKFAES
UniProt Q9NVM9, whole entry, looked up: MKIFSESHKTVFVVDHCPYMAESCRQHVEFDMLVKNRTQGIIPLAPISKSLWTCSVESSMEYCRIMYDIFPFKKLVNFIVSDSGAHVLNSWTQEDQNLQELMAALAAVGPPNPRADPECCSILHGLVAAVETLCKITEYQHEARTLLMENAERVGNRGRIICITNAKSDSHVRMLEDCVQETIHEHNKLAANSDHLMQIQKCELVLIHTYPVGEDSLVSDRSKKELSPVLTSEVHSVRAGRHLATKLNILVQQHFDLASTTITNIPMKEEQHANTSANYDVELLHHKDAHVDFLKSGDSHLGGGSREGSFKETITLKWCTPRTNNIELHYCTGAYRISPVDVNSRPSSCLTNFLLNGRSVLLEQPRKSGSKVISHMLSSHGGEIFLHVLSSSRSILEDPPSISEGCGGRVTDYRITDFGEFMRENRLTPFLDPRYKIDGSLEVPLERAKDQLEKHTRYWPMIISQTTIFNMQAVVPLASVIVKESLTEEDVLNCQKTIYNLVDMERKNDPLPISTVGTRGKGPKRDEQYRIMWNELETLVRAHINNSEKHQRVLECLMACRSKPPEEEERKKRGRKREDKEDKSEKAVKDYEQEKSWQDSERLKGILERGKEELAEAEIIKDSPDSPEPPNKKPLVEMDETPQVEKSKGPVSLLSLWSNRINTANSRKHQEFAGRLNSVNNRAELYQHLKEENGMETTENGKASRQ
UniProt Q6P9B9, whole entry, looked up: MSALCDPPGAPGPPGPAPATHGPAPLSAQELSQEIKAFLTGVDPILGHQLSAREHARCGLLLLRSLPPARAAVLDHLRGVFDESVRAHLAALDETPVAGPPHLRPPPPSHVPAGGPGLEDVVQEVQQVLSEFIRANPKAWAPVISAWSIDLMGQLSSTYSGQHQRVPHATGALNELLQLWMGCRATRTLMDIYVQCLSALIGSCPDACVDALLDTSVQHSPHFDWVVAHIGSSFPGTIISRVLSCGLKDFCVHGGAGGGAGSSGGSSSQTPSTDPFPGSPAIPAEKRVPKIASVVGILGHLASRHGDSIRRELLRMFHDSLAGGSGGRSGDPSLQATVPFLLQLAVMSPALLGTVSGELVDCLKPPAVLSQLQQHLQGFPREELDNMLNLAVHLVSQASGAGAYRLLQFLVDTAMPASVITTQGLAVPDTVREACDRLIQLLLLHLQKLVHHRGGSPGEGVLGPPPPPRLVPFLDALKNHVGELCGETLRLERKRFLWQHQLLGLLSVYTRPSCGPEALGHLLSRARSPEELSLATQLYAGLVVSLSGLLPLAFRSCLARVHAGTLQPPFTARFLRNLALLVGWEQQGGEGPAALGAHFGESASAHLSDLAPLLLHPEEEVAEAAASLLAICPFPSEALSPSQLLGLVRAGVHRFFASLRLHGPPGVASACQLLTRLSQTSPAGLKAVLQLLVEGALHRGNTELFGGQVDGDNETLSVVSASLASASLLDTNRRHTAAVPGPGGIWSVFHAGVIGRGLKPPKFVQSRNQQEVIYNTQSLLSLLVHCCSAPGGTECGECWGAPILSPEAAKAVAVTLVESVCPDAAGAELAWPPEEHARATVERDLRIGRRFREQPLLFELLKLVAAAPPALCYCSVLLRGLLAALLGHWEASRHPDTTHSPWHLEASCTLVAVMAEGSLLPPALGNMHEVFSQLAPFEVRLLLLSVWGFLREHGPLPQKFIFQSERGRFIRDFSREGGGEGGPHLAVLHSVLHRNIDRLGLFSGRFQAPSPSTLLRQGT
UniProt Q96A47: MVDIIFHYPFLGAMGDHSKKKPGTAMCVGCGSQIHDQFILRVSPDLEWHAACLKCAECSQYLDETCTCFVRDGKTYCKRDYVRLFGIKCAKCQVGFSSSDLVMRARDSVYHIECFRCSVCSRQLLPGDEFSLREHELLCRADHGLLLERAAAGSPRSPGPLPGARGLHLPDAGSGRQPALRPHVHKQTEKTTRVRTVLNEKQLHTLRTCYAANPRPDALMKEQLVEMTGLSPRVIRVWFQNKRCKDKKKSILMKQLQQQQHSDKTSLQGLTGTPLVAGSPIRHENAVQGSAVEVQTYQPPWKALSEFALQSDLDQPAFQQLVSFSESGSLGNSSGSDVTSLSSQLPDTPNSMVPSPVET

Compound: CC1Cc2ccccc2N1C(=O)C1CCCN(C1)C(=O)CCl (mixture of isomers) [TRIM25 ligand 11 (diastereomer mixture)]
Assay: probe-labelled cysteine peptide fold change vs DMSO (competition) (log2 fold change); higher = less target engagement (more negative = stronger competition)
Settings: THP-1, incubation time: 4 h
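Note: competitive chemoproteomic profiling in live THP-1 cells with an iodoacetamide desthiobiotin (IA-DTB) probe, comparing probe-labelled peptide intensities in compound-treated cells against DMSO-treated controls.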

| Target | probe-labelled cysteine peptide fold change (10 µM) | probe-labelled cysteine peptide fold change (50 µM) |
| --- | --- | --- |
| IP6K1_Q92551_48_YDDHTVCK (UniProt Q92551) | 0.0272 | -0.101 |
| IPO7_O95373_90_NMITQYWPDRETAPGDISPYTIPEEDRHCIR (UniProt O95373) | -0.0447 | 0.0283 |
| ITGAV_P06756_97_CQPIEFDATGNR (UniProt P06756) | 0.0589 | -0.0513 |
| IRF2BP2_Q7Z5L9_19_QSCYLCDLPR (UniProt Q7Z5L9) | -0.276 | -0.103 |
| IPO11_Q9UI26_252_QFLECSR (UniProt Q9UI26) | 0.00466 | 0.186 |
| IPO8_O15397_478_SCWVLHAFSSLK (UniProt O15397) | 0.0123 | 0.0629 |
| IQSEC1_Q6DN90_260_SLAESIDDALNCR (UniProt Q6DN90) | -0.0275 | -0.0141 |
| ISG15_P05161_78_CDEPLSILVR (UniProt P05161) | 0.297 | 0.364 |
| IRF2BP2_Q7Z5L9_16+19_QSCYLCDLPR (UniProt Q7Z5L9) | 0.0224 | -0.127 |
| ITGB2_P05107_536_LIYGQYCECDTINCER (UniProt P05107) | 0.116 | -0.103 |
| INTS13_Q9NVM9_406_SILEDPPSISEGCGGR (UniProt Q9NVM9) | 0.0099 | -0.194 |
| IPO8_O15397_827_IQLPHNPGPITVQFINQWMNDTDCFLGHHDR (UniProt O15397) | 0.0633 | 0.252 |
| INTS5_Q6P9B9_58_CGLLLLR (UniProt Q6P9B9) | -0.00715 | 0.145 |
| ITGB2_P05107_628_YISCAECLK (UniProt P05107) | 0.197 | 0.375 |
| ITGB2_P05107_472_CDTGYIGK (UniProt P05107) | 0.00697 | 0.0639 |
| ISL2_Q96A47_30_KKPGTAMCVGCGSQIHDQFILR (UniProt Q96A47) | -0.0558 | 0.0905 |
| IRF2BP2_Q7Z5L9_521_LEDTHFVQCPSVPSHK (UniProt Q7Z5L9) | 0.038 | -0.00735 |
| INTS7_Q9NVH2_352_LAQECCYHNNR (UniProt Q9NVH2) | 0.106 | 0.189 |
| INTS1_Q8N201_611_DYVHCLHK (UniProt Q8N201) | 0.0589 | 0.116 |
| IPO5_O00410_733_VAAAESMPLLLECAR (UniProt O00410) | -0.0623 | -0.134 |
| INTS12_Q96CB8_182_QMMVASGNQLVECQECHNLYHR (UniProt Q96CB8) | 0.138 | 0.00867 |
| INSR_P06213_825_IELQACNQDTPEER (UniProt P06213) | -0.0166 | -0.0546 |
| ITGB2_P05107_445+447_ALGFTDIVTVQVLPQCECR (UniProt P05107) | 0.0136 | 0.122 |
| IQGAP1_P46940_524_AQAHAENNEFITWNDIQACVDHVNLVVQEEHER (UniProt P46940) | -0.0917 | 0.141 |
| INTS4_Q96HW7_109_TAGFSPDCIMDDAINILQNEK (UniProt Q96HW7) | 0.138 | -0.00119 |
| IRF2BP2_Q7Z5L9_509_EVGGQGAGNTGGLEPVHPASLPDSSLATSAPLCCTLCHER (UniProt Q7Z5L9) | 0.00326 | 0.127 |

A different layout for part of the listing above:
Target	probe-labelled cysteine peptide fold change (10 µM)	probe-labelled cysteine peptide fold change (50 µM)
IPO11_Q9UI26_252_QFLECSR (UniProt Q9UI26)	0.00466	0.186
ITGB2_P05107_445+447_ALGFTDIVTVQVLPQCECR (UniProt P05107)	0.0136	0.122
